Reference: PubChem BioAssay AID1347076 (National Center for Advancing Translational Sciences (NCATS), 2019)
The campaign covered roughly 400,000 compounds. About 13,000 (3.2%) were called active. This list was built around the results that the source calls inconclusive (neither active nor inactive); the mix of calls is not that of the screen. The call rests on the fitted dose curve; in most records, active means well fitted cell-killing curve with a large enough effect; inconclusive means small, poorly fitted or top-dose-only effect, or effect the other way; inactive means flat fitted curve, though single readings scatter. Potencies beside an inconclusive call are fits to weak or partial responses and may not hold up.

Assay: qHTS assay for MDR1-selective chemotherapeutics: Primary screen using the drug-selected MDR subline cells KB-V1; further: nearly all actives have a fitted effect of over 60% in size
Details: KB-V1 MDR cells viability, CellTiter-Glo, 72 h; activity change, negative = cytotoxicity: at 46.1 µM (top of the series)
Procedure, shortened: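 KB-V1 MDR subline cells in DMEM (phenol-red free, 10% FBS) exposed to compounds in qHTS concentration series for 72 h at 37 degrees C. Viability read by CellTiter-Glo luminescence; concentration-effect curves fitted after normalization and correction.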
On the % scale 0 is the no-effect control and ±100 the full control effect; potency means the concentration at half of the fitted maximal effect.

Row | Structure (SMILES) | activity change, negative = cytotoxicity | Potency
1 | Cc1ccc(N(CC(=O)Nc2ccc3c(c2)OCCO3)S(C)(=O)=O)cc1 | inactive: -19.4% | 
2 | c1ccc(CN(Cc2cccs2)C(c2cccs2)c2nnnn2C2CCCC2)cc1 (stereo not drawn) |  | inconclusive: 29.1 µM [cytotoxic, single point]
3 | COCCN1C[C@@H](CO)O[C@@H](n2cnc3c(NC4CC4)ncnc32)C1 | inactive: -3.94% | 
4 | CC1=C(C(=O)OCC2CCCCC2)C(c2ccccc2F)NC(=O)N1 (stereo not drawn) |  | inconclusive: 20.6 µM [cytotoxic, partial curve]
5 | NC(=O)C1CC(=O)N(Cc2ccc3c(c2)OCO3)C(=Nc2ccccc2)S1 (stereo not drawn) |  | inconclusive: 18.4 µM [cytotoxic, partial curve]
6 | N#CC1=C(N)S[C@@H](C(=O)c2ccc(F)cc2)[C@@H]1c1cccs1 |  | inconclusive: 23.1 µM [cytotoxic, single point]
7 | CNC(=S)NNC(=O)c1ccccc1Br |  | inconclusive: 0.259 µM [rising, full curve, poor fit]
8 | CCCCNC(=S)Nc1ccc(Cl)cc1 |  | active: 16.4 µM
9 | O=C(N/N=C/c1cccc2ccccc12)c1cccc(F)c1 |  | inconclusive: 29.1 µM [rising, single point]
10 | O=C(COc1ccc(C(F)(F)F)cc1[N+](=O)[O-])Nc1cccc(C(F)(F)F)c1 |  | inconclusive: 0.0461 µM [rising, full curve]
11 | Cc1cccc(C)c1NC(=O)CCCSc1nnc(-c2ccc(F)cc2)n1-c1ccccc1 |  | active: 2.31 µM
12 | CCC(CO)NCc1ccc(Br)cc1 (stereo not drawn) |  | inconclusive: 29.1 µM [rising, single point]
13 | Cc1cccc2c(C(=O)N3CCN(c4ccccn4)CC3)cc(-c3cccc(Br)c3)nc12 |  | inconclusive: 32.6 µM [cytotoxic, partial curve, poor fit]
14 | CC(=O)c1ccc(NC(=O)c2cc(S(=O)(=O)N3CCOCC3)ccc2C)cc1 |  | inactive
15 | O=C(NC(c1ccco1)c1cc(Cl)c2cccnc2c1O)c1ccc(F)c(F)c1 (stereo not drawn) |  | inconclusive: 16.4 µM [cytotoxic, single point]
16 | CC(Oc1ccccc1)C(=O)N1CCN(C(=O)C(C)Oc2ccccc2)CC1 (stereo not drawn) |  | inconclusive: 16.4 µM [cytotoxic, single point]
17 | CC(C)Nc1ccc(Nc2ccnc3cc4ccccc4cc23)cc1 |  | inconclusive: 20.6 µM [cytotoxic, single point]
18 | Cc1ccc(-c2nnn(CC(=O)N(CC(=O)NCC3CCCO3)c3ccc(F)c(Cl)c3)n2)o1 (stereo not drawn) |  | active: 14.6 µM
19 | CCc1nnc(NC(=O)/C=C/c2ccc(C)o2)s1 |  | inconclusive: 8.2 µM [cytotoxic, partial curve]
20 | CCC1CCCCN1CCN1C(=O)C2C(C(=O)Nc3ccc(OC)cc3)C3C=CC2(O3)C1C(=O)NC1CCCCC1 (stereo not drawn) | inactive: -18% | 
21 | COc1ccc(C2(CNS(=O)(=O)c3ccccc3)CCOCC2)cc1 |  | inconclusive: 29.1 µM [rising, single point]
22 | CCc1nnc(NC(=O)CSc2nnc(-c3ccccc3NC(=O)c3ccccc3)o2)s1 |  | inconclusive: 25.9 µM [cytotoxic, single point]
23 | COc1ccc(CCNC(=O)c2ccc(Cn3c(=O)c4ccccc4n(Cc4ccc(F)cc4Cl)c3=O)cc2)cc1OC |  | inconclusive: 29.1 µM [rising, single point]

Row | Structure (SMILES) | activity change, negative = cytotoxicity | Potency
24 | Cc1cc([N+](=O)[O-])nn1CC(=O)Nc1sc2c(c1C(N)=O)CCCC2 |  | inconclusive: 16.4 µM [cytotoxic, single point]
25 | C[C@H]1CN=C(N(C)C)N1CC1CCC(C(C)(C)C)CC1 (stereo partly drawn) | inactive: 6.36% | 
26 | COc1ccc(Nc2nc3ccccc3n3nnnc23)cc1 |  | active: 5.8 µM
27 | CCCN1CCN(CCCNC(=O)c2ccc3c(c2)sc2nc(-c4ccc(OCC)cc4)cn23)CC1 |  | inconclusive: 20.6 µM [cytotoxic, partial curve, poor fit]
28 | CCOc1ccc(-c2cn3c(n2)sc2cc(C(=O)N4CCCC(C)C4)ccc23)cc1 (stereo not drawn) | inactive: 0.586% | 
29 | CCN1CCN(C(=O)c2ccc3c(c2)N(Cc2ccccc2)C(=O)c2ccccc2S3(=O)=O)CC1 | inactive: 0.802% | 
30 | Cc1cc(C)c2c(c1)cc(C)c1nnc(SCC(=O)Nc3ccccc3N3CCOCC3)n12 | inactive: -10.5% | 
31 | CCN(CC)c1ccc(-c2nnc(SCC(=O)Nc3ccccc3C#N)n2-c2ccccc2)cc1 | inactive: -7.32% | 
32 | COc1ccc(/C(N)=N/OC(=O)c2ccco2)cc1 |  | inconclusive: 18.4 µM [rising, partial curve, poor fit]
33 | O=C(N/N=C/c1ccccc1)c1c(O)c2ccccc2[nH]c1=O |  | inconclusive: 29.1 µM [cytotoxic, single point]
34 | O=C(C[n+]1cc(-c2ccc(Br)cc2)n2c1CCCCC2)c1ccccc1 |  | inconclusive: 1.84 µM [rising, partial curve]
35 | COc1ccccc1CNC(=O)C1CCN(C2=NS(=O)(=O)C(c3ccc(C)c(C)c3)=C2C)CC1 | inactive: -15.6% | 
36 | N#Cc1c(SCC(=O)Nc2nc3ccc(Br)cc3s2)sc2c(O)cc(=O)[nH]c12 |  | inconclusive: 11.6 µM [rising, partial curve]
37 | CC1CCN(C(=O)c2cccc(NC(=O)c3cccs3)c2)CC1 |  | inconclusive: 7.31 µM [cytotoxic, partial curve]
38 | CCOc1ccc(-n2cnnn2)cc1S(=O)(=O)Nc1c(C)cccc1C |  | inconclusive: 18.4 µM [cytotoxic, partial curve]
39 | COc1ccc(CNC(=O)C2CC(c3cc(C(F)(F)F)cc(C(F)(F)F)c3)=NO2)cc1 (stereo not drawn) |  | inconclusive: 29.1 µM [cytotoxic, single point]
40 | COc1ccc(-c2nc(CC(=O)O)cs2)cc1 |  | inconclusive: 16.4 µM [rising, partial curve, poor fit]
41 | COc1ccc(CNC(=O)c2cc3c(s2)CN(Cc2ccccc2)C3)cc1 |  | inconclusive: 20.6 µM [cytotoxic, single point]
42 | COc1ccc(-c2ccc(C(=O)NCCc3ccccc3)c3occc23)c(C)c1 |  | inconclusive: 29.1 µM [cytotoxic, single point]
43 | Cc1ccc2c(c1)-c1c(cnn1CC(=O)N1CCN(c3cc(C)ccc3C)CC1)CO2 |  | inconclusive: 32.6 µM [cytotoxic, single point]
44 | O=C(Nc1cccc2ccccc12)c1csc([C@@H]2O[C@H](CO)[C@H](O)[C@H](O)[C@H]2O)n1 | inactive: 3.14% | 
45 | COc1cc(C2=NOC(C(=O)NCc3ccc(F)cc3)C2)cc(OC)c1OC (stereo not drawn) |  | active: 1.46 µM
46 | COC(=O)C1C(=O)c2c([nH]c(C(=O)OCC3CCCO3)c2C)CC1C (stereo not drawn) | inactive: 1.2% | 

Row | Structure (SMILES) | activity change, negative = cytotoxicity | Potency
47 | COc1ccc(NC(=O)Nc2ccc(C(=O)N3CCOCC3)cc2)cc1OC |  | inconclusive: 5.17 µM [rising, full curve, poor fit]
48 | O=C(Cc1ccc2ccccc2c1)Nc1nnc(-c2ccncc2)s1 | inactive: 12.9% | 
49 | COc1cccc2cc(C(=O)N3CCCc4ccccc43)oc12 |  | inconclusive: 8.2 µM [cytotoxic, single point]
50 | COCCOC(=O)C1=C(C)N(Cc2ccccc2)C(=O)NC1c1ccc(OC)cc1 (stereo not drawn) |  | active: 13 µM
51 | CC1CCN(c2csc3ccc(F)cc3c2=O)CC1 | inactive: 0% | 
52 | c1ccc(-c2noc(CN3CCN(C(c4ccccc4)c4ccccc4)CC3)n2)cc1 |  | inconclusive: 10.3 µM [cytotoxic, partial curve]
53 | CCc1nc2ccc(C(=O)NCCc3ccccn3)cn2c1N(C)Cc1cccs1 |  | inconclusive: 5.8 µM [cytotoxic, partial curve]
54 | CCOc1ccccc1Nc1nc(-c2sc(NC(=O)c3ccco3)nc2C)cs1 |  | inconclusive: 18.4 µM [cytotoxic, single point]
55 | COC(=O)[C@@]12CCCCN1[C@H](c1ccc(-c3ccc(C(C)=O)cc3)c(OC)c1)[C@@H]1C(=O)N(C)C(=O)[C@@H]12 | inactive: 0% | 
56 | COc1ccccc1C=NC(CO)C(O)c1ccc([N+](=O)[O-])cc1 (stereo not drawn) |  | inconclusive: 9.2 µM [rising, partial curve, poor fit]
57 | CCOC(=O)N1CCC(Nc2ncnc3c2cnn3-c2ccccc2)CC1 |  | inconclusive: 11.6 µM [cytotoxic, partial curve, poor fit]
58 | Cc1ccc(S(=O)(=O)N2CCCC2c2nc3ccccc3s2)cc1 (stereo not drawn) |  | active: 20.6 µM
59 | COc1ccc(/C=C/c2cc(=O)c3cc(Cl)ccc3o2)cc1 |  | inconclusive: 14.6 µM [cytotoxic, partial curve]
60 | CCn1nc(C(=O)Nc2ccc(Cl)c(S(=O)(=O)N3CCOCC3)c2)c2ccccc2c1=O |  | inconclusive: 29.1 µM [cytotoxic, single point]
61 | CN(CC(=O)Nc1ccc(S(=O)(=O)N2CCCC2)cc1)Cc1ccc(Cl)cc1Cl |  | active: 13 µM
62 | O=C(NC1CCCCC1)C(c1cccnc1)N(C(=O)CCl)c1ccc(F)cc1 (stereo not drawn) |  | active: 16.4 µM
63 | COc1ccc2c(c1)C(c1ccc(C)o1)=NNC(c1cccnc1)=N2 |  | inconclusive: 2.59 µM [cytotoxic, full curve]
64 | O=C(NC1CCCC1)c1ccc(CS(=O)(=O)c2cccc(C(F)(F)F)c2)o1 |  | inconclusive: 29.1 µM [cytotoxic, single point]
65 | CC(C)c1ccc2c(c1)[C@H]1OCC[C@H]1[C@@H](c1cccs1)N2 |  | active: 2.31 µM
66 | O=C(NCCCN1CCOCC1)c1c(O)c2ccccc2[nH]c1=O |  | inconclusive: 3.66 µM [cytotoxic, full curve, poor fit]
67 | CCOC(=O)c1[nH]c(C)c(C(=O)OCC(=O)N(CC)C2CCS(=O)(=O)C2)c1C (stereo not drawn) |  | inconclusive: 29.1 µM [rising, single point]
68 | COc1ccc(Oc2c(Cl)cnn(-c3ccc(C)cc3)c2=O)cc1 | inactive: -0.275% | 

Entries shown so far containing an aryl thioether with sulfur outside any ring (five):
Row | Structure (SMILES) | activity change, negative = cytotoxicity | Potency
11 | Cc1cccc(C)c1NC(=O)CCCSc1nnc(-c2ccc(F)cc2)n1-c1ccccc1 |  | active: 2.31 µM
22 | CCc1nnc(NC(=O)CSc2nnc(-c3ccccc3NC(=O)c3ccccc3)o2)s1 |  | inconclusive: 25.9 µM [cytotoxic, single point]
30 | Cc1cc(C)c2c(c1)cc(C)c1nnc(SCC(=O)Nc3ccccc3N3CCOCC3)n12 | inactive: -10.5% | 
31 | CCN(CC)c1ccc(-c2nnc(SCC(=O)Nc3ccccc3C#N)n2-c2ccccc2)cc1 | inactive: -7.32% | 
36 | N#Cc1c(SCC(=O)Nc2nc3ccc(Br)cc3s2)sc2c(O)cc(=O)[nH]c12 |  | inconclusive: 11.6 µM [rising, partial curve]
